Laboratory results: paper PMC4096430
No constants are given. Whether binding was seen depends on the method and setting. In cells and extracts the contact can be indirect. Some results given as binding are weak or reduced against the parent protein; the word gives no strength. One block for each substance: values may come before it.

How the values were obtained:
[1] = target: CIN85 with mutation of R648 alone (UniProt Q96B97); test: cross-linking; results not shown; single point mutants of Group A; format not told (taken as the DMP cross-link of the other mutants)
[2] = target: CIN85 (K645/646A), Flag-tagged (UniProt Q96B97); test: cross-linking; lysate of HEK293 cells expressing the CIN85 mutant in 0.2 M triethanolamine pH 8.0; 100 uM dimethylpimelimidate (DMP), 1 hour at 4°C; stopped with 100 mM Tris-HCl pH 7.5; SDS-PAGE and western blot
[3] = target: CIN85 with mutation of K646 alone (UniProt Q96B97); test: cross-linking; results not shown; single point mutants of Group A; format not told (taken as the DMP cross-link of the other mutants)
[4] = target: CIN85 (K646/R648A), Flag-tagged (UniProt Q96B97); test: cross-linking; lysate of HEK293 cells expressing the CIN85 mutant in 0.2 M triethanolamine pH 8.0; 100 uM dimethylpimelimidate (DMP), 1 hour at 4°C; stopped with 100 mM Tris-HCl pH 7.5; SDS-PAGE and western blot
[5] = target: CIN85 with mutation of K646, R648 and R650, Flag-tagged (UniProt Q96B97); test: as above
[6] = target: CIN85 with mutation of K645 alone (UniProt Q96B97); test: cross-linking; results not shown; single point mutants of Group A; format not told (taken as the DMP cross-link of the other mutants)
[7] = target: c-Cbl (Casitas B-lineage lymphoma proto-oncoprotein), HA-tagged (UniProt P22681); test: co-IP; HA-Cbl and Flag-tagged CIN85 mutants co-expressed in HEK293 cells; HA-Cbl immunoprecipitated by anti-HA antibody, CIN85 detected by anti-Flag immunoblot; lysis in 1% Triton X-100, 10% glycerol, 20 mM Hepes pH 7.4, 150 mM NaCl, 1 mM EDTA
[8] = target: c-Cbl (Casitas B-lineage lymphoma proto-oncoprotein), HA-tagged (UniProt P22681); test: co-IP; COS7 cells co-expressing CIN85 mutant and HA-Cbl, serum starved and stimulated with 25 ng/ml EGF for 30 minutes; HA-Cbl immunoprecipitated by anti-HA antibody; CIN85 mutants and EGFR detected by anti-Flag and anti-EGFR immunoblot
[9] = target: CIN85 (R648/650A), Flag-tagged (UniProt Q96B97); test: cross-linking; lysate of HEK293 cells expressing the CIN85 mutant in 0.2 M triethanolamine pH 8.0; 100 uM dimethylpimelimidate (DMP), 1 hour at 4°C; stopped with 100 mM Tris-HCl pH 7.5; SDS-PAGE and western blot
[10] = target: CIN85 (Cbl-interacting protein of 85 kDa), wild type, Flag-tagged (UniProt Q96B97); test: as above
[11] = target: CIN85 with mutation of R650 alone (UniProt Q96B97); test: cross-linking; results not shown; single point mutants of Group A; format not told (taken as the DMP cross-link of the other mutants)

binding [1]: binds
Substance: CIN85 with mutation of R648 alone (from UniProt Q96B97 1-665)

binding [4]: binds
Substance: CIN85 (K646/R648A), Flag-tagged (from UniProt Q96B97 1-665)

binding [5]: binds
Substance: CIN85 with mutation of K646, R648 and R650, Flag-tagged (from UniProt Q96B97 1-665)

binding [11]: binds
Substance: CIN85 with mutation of R650 alone (from UniProt Q96B97 1-665)

More lines, now with the values behind:

Substance: CIN85 (K645/646A), Flag-tagged (from UniProt Q96B97 1-665)
binding [2]: binds

Substance: CIN85 with mutation of K646 alone (from UniProt Q96B97 1-665)
binding [3]: binds

Substance: CIN85 with mutation of K645 alone (from UniProt Q96B97 1-665)
binding [6]: binds

Substance: CIN85-B4m (Group B: K627, K631, R632 and K635 mutated to alanine), Flag-tagged (from UniProt Q96B97 1-665)
binding [7]: binds
binding [8]: binds

Substance: CIN85 (R648/650A), Flag-tagged (from UniProt Q96B97 1-665)
binding [9]: binds

Substance: CIN85 (Cbl-interacting protein of 85 kDa), wild type, Flag-tagged (from UniProt Q96B97 1-665)
binding [7]: binds
binding [10]: binds
